Source: PubChem BioAssay AID504467 (National Center for Advancing Translational Sciences (NCATS), 2011)
About 7,700 (2.3%) of roughly 330,000 compounds were called active. Inconclusive results, whose numbers are uncertain, are shown with a selection of clear calls. The call rests on the fitted dose curve; in most records, active means well fitted inhibition curve with a large enough effect; inconclusive means small, poorly fitted or top-dose-only effect, or effect the other way; inactive means flat fitted curve, though single readings scatter. A potency beside an inconclusive call is a rough fit, not a confirmed value.

test: qHTS screen for small molecules that inhibit ELG1-dependent DNA repair in human embryonic kidney (HEK293T) cells expressing luciferase-tagged ELG1; settings: HEK293T ELG1-luciferase reporter, luminescence, 16 h, DNA damage induced by 5-fluorouridine; activity change, negative = inhibition: at 46.1 µM (top of the series); further: nearly all actives have a fitted effect of over 55% in size
Outline: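 Overnight (16 hr) co-exposure of 2,000 cells/well to 5-fluorouridine and compound at 37 °C preceded detection. Luciferase was quantified via ONE-Glo luminescence; loss of signal denotes inhibition.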
On the % scale 0 is the no-effect control and ±100 the full control effect; potency means the concentration at half of the fitted maximal effect.

Structure (SMILES)	Potency	activity change, negative = inhibition
CCN(CC)C(=O)CSc1nc2c(c(-c3cccnc3)c1C#N)CCCC2	inconclusive: 25.9 µM [inhibitor, single point]	–
Cc1ccc(C)c(NC(=O)CCC(=O)NN=C2CCCC2)c1	–	inactive: 7.58%
CC1CC(=O)Nc2ccccc2N1S(=O)(=O)c1ccc(F)cc1F (stereo not drawn)	–	inactive: 18.5%
Cc1ccc(C(=O)N2CCCC(Nc3ccc(F)cc3)C2)cc1C (stereo not drawn)	inconclusive: 32.6 µM [inhibitor, partial curve, poor fit]	–
Fc1ccc(-c2nc(-c3cccs3)no2)cc1	inconclusive: 20.6 µM [activator, partial curve]	–
O=C(NCCSc1c[nH]c2ccccc12)c1ccco1	inconclusive: 20.6 µM [activator, single point]	–
COc1cc(NC(=O)c2cccc(Cl)c2)c(OC)cc1NC(=O)CN1CCOCC1	inconclusive: 23.1 µM [inhibitor, single point]	–
CN1CCN(C(=O)c2c(NC(=O)c3ccco3)sc3c2CCC(C(C)(C)C)C3)CC1 (stereo not drawn)	–	inactive: 2.66%
COc1ccc(C(=O)N2CCC3(CC2)NCCc2[nH]cnc23)cc1	–	inactive: 12.5%
Cc1cc2ncc(-c3ccc(Cl)cc3)c(N)n2n1	inconclusive: 18.4 µM [activator, partial curve]	–
CCN(CC)S(=O)(=O)c1ccc(/C(O)=C(\C#N)c2nc3ccccc3n2C)cc1	inconclusive: 29.1 µM [inhibitor, single point]	–
Cc1ccc(-n2cc3c(-c4cccc(Br)c4)nnc(C)c3n2)cc1	–	inactive: -12.6%
Cc1nn(-c2ccccc2)c2c1C(O)n1c(nc3ccccc31)S2 (stereo not drawn)	active: 2.59 µM	–
CCN(c1ccccc1)S(=O)(=O)c1ccc(NC(=S)NC(=O)c2ccc(Br)o2)cc1	inconclusive: 35.5 µM [inhibitor, single point]	–
CC(C)(C)c1ccc(C(=O)CSc2n[nH]c(=O)[nH]c2=O)cc1	inconclusive: 23.1 µM [activator, single point]	–
CCOc1ccc(CC(=O)N2CCC3(CC2)NCCc2[nH]cnc23)cc1	–	inactive: 12.1%
O=C(CSc1ccccc1)N1CCN(S(=O)(=O)c2cccs2)CC1	–	inactive: 20.5%
CC1CCN(S(=O)(=O)c2ccc3c(c2)N(CC(=O)NCCCN2CCCC(C)C2)C(=O)CO3)CC1 (stereo not drawn)	inconclusive: 20.6 µM [activator, single point]	–
C=CCOc1ccccc1C1C2=C(CC(C)(C)CC2=O)Nc2c1c(=O)n(C)c(=O)n2C (stereo not drawn)	–	inactive: -22.4%
Cc1cccc2c(C(=O)Nc3ccc(Br)cc3)cc(-c3ccccn3)nc12	inconclusive: 9.2 µM [activator, partial curve]	–
COc1cc(O)c(C(CC(=O)N2CCCCC2)c2cc(OC)c(OC)c(OC)c2)c(OC)c1 (stereo not drawn)	–	inactive: 11%
Cc1oc(-c2ccc(Cl)cc2)nc1CN1CCC(C(=O)N2CCN(Cc3ccccc3)CC2)CC1	inconclusive: 9.2 µM [inhibitor, partial curve]	–

Single values from the entries so far:
O=C(CSc1ccccc1)N1CCN(S(=O)(=O)c2cccs2)CC1 | activity change, negative = inhibition: inactive: 20.5%
Cc1oc(-c2ccc(Cl)cc2)nc1CN1CCC(C(=O)N2CCN(Cc3ccccc3)CC2)CC1 | Potency: inconclusive: 9.2 µM [inhibitor, partial curve]

The results go on:

Structure (SMILES)	Potency	activity change, negative = inhibition
O=c1c(-c2nc3ccccc3s2)cccn1Cc1ccccc1	inconclusive: 5.17 µM [activator, partial curve]	–
CC(=O)c1cccc(NC(=O)C(C)OC(=O)CCc2nc3ccccc3c(=O)[nH]2)c1 (stereo not drawn)	inconclusive: 20.6 µM [activator, partial curve, poor fit]	–
Cc1ccc2nc(NC(=O)[C@H](C)N3C(=O)C4CC=CCC4C3=O)sc2c1 (stereo partly drawn)	inconclusive: 20.6 µM [activator, single point]	–
COC(=O)c1cc(C#N)c(N2CCN(C)CC2)nc1C	–	inactive: 12.2%
CCn1cc(S(=O)(=O)Nc2ccc3c(c2)OCCO3)cn1	inconclusive: 20.6 µM [activator, partial curve]	–
CCN(CC)S(=O)(=O)c1ccc(C(=O)C(C#N)c2ccccn2)cc1 (stereo not drawn)	inconclusive: 25.9 µM [inhibitor, partial curve, poor fit]	–
CCN(CC(=O)Nc1ccc(NC(C)=O)cc1)C(=O)c1ccc(NC2CC2)c([N+](=O)[O-])c1	inconclusive: 0.259 µM [inhibitor, single point]	–
O=C(CNCc1ccccn1)Nc1cc(S(=O)(=O)N2CCCCC2)ccc1Cl	inconclusive: 20.6 µM [inhibitor, single point]	–
O=C(COC(=O)c1cc([N+](=O)[O-])ccc1N1CCOCC1)c1ccc(OC(F)F)cc1OC(F)F	active: 20.6 µM	–
CCOCCCN(C)C1CCN(C(=O)c2oc3ccccc3c2NC(=O)Cc2ccc([N+](=O)[O-])cc2)CC1	inconclusive: 11.6 µM [inhibitor, partial curve]	–
CCCC(=O)Nc1cccc(NC(=O)c2ccc([N+](=O)[O-])cc2Cl)c1	inconclusive: 20.6 µM [inhibitor, partial curve]	–
COC(=O)c1sccc1NC(=O)c1c(C)c(-c2cccc(Cl)c2)nc2ccccc12	inconclusive: 25.9 µM [inhibitor, single point]	–
Cc1cccc(NC(=O)c2cn(-c3ccccc3)nc2-c2ccccc2)c1	–	inactive: -25.5%
CC(C)N1CCC(N2CCN(Cc3ccc(-c4ccccc4Cl)o3)CC2CCO)CC1 (stereo not drawn)	inconclusive: 18.3 µM [inhibitor, single point]	–
CCC1=Nc2cc(C(=O)NCCN3CCOCC3)ccc2Sc2ccc(Br)cc21	–	inactive: 4.24%
Cc1ccc(C(NC(=O)NN2CCN(C)CC2)C(Cl)Cl)cc1F (stereo not drawn)	inconclusive: 20.6 µM [activator, single point]	–
Cc1cccc(NC(=O)C2CCN(S(=O)(=O)c3cccc4nsnc34)CC2)n1	inconclusive: 23.1 µM [inhibitor, partial curve]	–
COC(=O)CCN(C(=O)c1ccc(N2CCCCC2)c([N+](=O)[O-])c1)c1ccccn1	–	inactive: -4.55%
COc1ccc(-c2cc(C(=O)Nc3cccnc3)no2)cc1OC	inconclusive: 6.51 µM [activator, partial curve]	–
CC(C)c1nc2sc3c(c2c(=O)n1N)CC(C)(C)OC3	inconclusive: 16.4 µM [inhibitor, partial curve]	–
O=C(c1ccc(F)cc1)C1CCN(C(=S)NCC2CCCO2)CC1 (stereo not drawn)	inconclusive: 14.6 µM [inhibitor, partial curve]	–
